# Data from patent US6652479B2, “Method and apparatus for transcutaneous infusion of carbon dioxide for local relief of pain and other ailments” (Capnia, Inc., priority 2000, dated 2003).
# At least one structure is not confirmed: it was looked up by name or label, or the drawing left a doubt.
# Test: in vitro rate of CO2 absorption by water-soaked paper towel (funnel / oil bolus apparatus)
# Type: physicochemical
# Conditions: extrapolated from towel absorption rates, if skin vascular bed removes CO2 as fast as it diffuses
# Experimental: To determine the inherent rate of absorption and diffusion of CO2 in a “passive” aqueous medium a preliminary in vitro experiment was performed. The apparatus and method employed for measuring the rate of CO2 absorption by a surface is illustrated in FIG. 1. The device was placed on a table top 150, and comprised a source of CO2 in the form of a cylinder 101 and a flow regulator 110, including a pressure regulator 112 and flow meter 113. Polyethylene tubing 115 of approximately 0.2 cm^2 lumen connected the cylinder 101 to a glass funnel 120 having a maximum area of 80 cm^2. An additional length of tubing 125 was used for measurement of changes in gas volume. This gas volume measurement means used in the experiment could be eliminated in a device intended to administer CO2 to a patient's skin surface. The entire system was purged of air by prolonged CO2 flow. The additional length of tubing 125 was purged first, then a bolus of low-volatility (forepump) oil 130 was inserted into its open end and the end plugged. […]
# Next, the funnel was placed on test surface 140 of a 0.4-mm thick water-soaked paper towel having about the same thickness as skin. […] The observed initial rate of absorption determined from several such tests fell in the range 0.6-1.2 ml/min, and saturation occurred at 4-10 ml, for the 80-cm^2 area test surface. […]
compound,measurement,value
"O=C=O [CO2, carbon dioxide]",time to deliver a 100-200 cc transcutaneous dose of CO2,1½ to 5½
